Reference: article PMC5524797
Results are given in words; binding and its absence hold for the method and conditions named. In cells and extracts the contact can be indirect. Some results given as binding are weak or reduced against the parent protein; the word gives no strength.

Chains of the proteins cited; added tags and fusions are not shown.
UniProt Q70KF4: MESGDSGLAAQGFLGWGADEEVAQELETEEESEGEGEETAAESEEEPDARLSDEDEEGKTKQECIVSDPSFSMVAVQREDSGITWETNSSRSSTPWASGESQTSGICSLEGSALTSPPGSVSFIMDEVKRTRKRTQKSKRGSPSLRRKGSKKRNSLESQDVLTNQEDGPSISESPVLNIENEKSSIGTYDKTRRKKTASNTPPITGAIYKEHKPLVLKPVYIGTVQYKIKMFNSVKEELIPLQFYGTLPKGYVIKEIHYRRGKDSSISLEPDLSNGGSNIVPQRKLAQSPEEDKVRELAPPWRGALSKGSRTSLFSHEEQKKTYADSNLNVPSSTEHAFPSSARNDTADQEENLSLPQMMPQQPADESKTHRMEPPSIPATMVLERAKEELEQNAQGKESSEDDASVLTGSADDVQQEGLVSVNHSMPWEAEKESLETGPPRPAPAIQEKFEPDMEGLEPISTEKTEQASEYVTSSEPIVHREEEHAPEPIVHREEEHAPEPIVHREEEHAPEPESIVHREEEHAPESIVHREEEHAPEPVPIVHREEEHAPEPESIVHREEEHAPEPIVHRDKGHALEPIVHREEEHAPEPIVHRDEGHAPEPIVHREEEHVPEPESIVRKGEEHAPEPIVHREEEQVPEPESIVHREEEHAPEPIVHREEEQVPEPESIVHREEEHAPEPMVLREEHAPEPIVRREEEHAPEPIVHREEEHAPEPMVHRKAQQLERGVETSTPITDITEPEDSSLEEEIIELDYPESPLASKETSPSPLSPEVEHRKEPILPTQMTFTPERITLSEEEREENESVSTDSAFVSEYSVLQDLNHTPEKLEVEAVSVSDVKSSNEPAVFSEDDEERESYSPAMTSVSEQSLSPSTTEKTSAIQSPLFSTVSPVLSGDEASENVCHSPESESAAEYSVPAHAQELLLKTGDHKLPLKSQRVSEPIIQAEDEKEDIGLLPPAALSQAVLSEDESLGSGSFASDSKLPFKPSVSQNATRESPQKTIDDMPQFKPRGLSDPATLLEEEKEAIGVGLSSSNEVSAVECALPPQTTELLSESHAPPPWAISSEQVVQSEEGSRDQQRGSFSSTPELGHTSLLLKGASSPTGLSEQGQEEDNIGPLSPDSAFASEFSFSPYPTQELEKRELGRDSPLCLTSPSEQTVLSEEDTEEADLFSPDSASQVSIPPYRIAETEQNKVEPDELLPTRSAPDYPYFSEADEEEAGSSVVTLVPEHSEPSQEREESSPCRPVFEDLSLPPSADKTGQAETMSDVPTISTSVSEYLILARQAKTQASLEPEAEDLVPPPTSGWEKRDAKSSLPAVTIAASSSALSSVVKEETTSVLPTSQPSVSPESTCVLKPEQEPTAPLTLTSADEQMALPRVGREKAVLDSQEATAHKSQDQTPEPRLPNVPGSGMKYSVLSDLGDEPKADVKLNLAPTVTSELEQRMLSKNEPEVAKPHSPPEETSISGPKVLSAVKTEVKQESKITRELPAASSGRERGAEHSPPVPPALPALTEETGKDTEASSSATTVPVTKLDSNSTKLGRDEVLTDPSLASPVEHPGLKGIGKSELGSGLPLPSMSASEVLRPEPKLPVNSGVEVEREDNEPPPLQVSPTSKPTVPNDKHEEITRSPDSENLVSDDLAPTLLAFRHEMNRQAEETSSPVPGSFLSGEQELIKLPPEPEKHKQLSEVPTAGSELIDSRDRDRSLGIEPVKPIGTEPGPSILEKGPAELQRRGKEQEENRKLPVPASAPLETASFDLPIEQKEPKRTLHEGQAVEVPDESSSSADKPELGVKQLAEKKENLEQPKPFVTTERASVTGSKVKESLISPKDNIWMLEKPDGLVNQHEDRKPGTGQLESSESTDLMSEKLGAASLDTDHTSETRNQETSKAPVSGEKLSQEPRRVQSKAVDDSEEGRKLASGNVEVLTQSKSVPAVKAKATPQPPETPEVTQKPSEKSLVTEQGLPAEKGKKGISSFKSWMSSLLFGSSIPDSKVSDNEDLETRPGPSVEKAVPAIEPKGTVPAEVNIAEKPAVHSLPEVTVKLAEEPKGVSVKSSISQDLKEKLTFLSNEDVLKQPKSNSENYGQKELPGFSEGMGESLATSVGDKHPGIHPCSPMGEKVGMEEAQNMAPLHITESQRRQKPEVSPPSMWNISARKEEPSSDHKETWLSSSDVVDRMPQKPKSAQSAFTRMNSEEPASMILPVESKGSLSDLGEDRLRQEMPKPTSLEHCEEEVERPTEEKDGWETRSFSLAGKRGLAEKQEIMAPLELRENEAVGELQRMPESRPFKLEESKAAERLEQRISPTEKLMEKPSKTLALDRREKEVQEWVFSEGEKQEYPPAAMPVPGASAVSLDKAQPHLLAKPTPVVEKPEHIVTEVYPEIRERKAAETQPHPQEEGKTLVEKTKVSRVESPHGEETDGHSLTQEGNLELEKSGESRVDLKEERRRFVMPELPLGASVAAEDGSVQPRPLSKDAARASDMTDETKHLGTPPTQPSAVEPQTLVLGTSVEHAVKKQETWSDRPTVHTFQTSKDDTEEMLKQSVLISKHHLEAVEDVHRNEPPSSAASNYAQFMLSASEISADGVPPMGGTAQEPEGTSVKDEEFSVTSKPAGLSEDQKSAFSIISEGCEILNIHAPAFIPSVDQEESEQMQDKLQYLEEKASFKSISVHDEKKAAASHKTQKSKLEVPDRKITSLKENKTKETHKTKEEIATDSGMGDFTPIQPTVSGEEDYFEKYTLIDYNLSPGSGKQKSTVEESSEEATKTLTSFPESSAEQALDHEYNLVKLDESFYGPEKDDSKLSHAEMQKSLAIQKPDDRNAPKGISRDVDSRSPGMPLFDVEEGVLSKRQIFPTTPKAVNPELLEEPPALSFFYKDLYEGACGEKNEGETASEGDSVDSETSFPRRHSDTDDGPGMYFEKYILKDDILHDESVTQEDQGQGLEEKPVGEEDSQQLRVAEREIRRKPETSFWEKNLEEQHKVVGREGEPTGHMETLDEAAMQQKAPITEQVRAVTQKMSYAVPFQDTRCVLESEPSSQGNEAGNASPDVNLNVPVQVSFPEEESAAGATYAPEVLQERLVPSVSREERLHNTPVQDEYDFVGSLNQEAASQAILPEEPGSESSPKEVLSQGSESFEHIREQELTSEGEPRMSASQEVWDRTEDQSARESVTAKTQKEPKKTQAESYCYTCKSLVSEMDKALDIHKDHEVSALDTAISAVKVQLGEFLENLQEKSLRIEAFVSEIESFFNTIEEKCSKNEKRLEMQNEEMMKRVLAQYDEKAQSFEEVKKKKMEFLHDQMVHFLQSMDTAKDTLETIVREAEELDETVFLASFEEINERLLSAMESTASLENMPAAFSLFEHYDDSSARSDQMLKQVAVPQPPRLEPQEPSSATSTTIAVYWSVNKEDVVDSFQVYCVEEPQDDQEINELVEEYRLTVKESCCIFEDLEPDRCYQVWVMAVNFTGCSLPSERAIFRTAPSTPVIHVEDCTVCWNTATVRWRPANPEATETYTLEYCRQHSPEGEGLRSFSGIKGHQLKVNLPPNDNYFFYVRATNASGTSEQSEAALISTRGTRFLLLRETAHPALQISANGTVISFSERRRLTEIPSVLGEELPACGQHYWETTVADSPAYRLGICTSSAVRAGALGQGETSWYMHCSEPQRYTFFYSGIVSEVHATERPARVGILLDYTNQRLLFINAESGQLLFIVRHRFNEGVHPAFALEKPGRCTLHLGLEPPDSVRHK

T1: minispryn (mouse (endogenous in heart)) (UniProt Q8BZ52)
T1 sequence: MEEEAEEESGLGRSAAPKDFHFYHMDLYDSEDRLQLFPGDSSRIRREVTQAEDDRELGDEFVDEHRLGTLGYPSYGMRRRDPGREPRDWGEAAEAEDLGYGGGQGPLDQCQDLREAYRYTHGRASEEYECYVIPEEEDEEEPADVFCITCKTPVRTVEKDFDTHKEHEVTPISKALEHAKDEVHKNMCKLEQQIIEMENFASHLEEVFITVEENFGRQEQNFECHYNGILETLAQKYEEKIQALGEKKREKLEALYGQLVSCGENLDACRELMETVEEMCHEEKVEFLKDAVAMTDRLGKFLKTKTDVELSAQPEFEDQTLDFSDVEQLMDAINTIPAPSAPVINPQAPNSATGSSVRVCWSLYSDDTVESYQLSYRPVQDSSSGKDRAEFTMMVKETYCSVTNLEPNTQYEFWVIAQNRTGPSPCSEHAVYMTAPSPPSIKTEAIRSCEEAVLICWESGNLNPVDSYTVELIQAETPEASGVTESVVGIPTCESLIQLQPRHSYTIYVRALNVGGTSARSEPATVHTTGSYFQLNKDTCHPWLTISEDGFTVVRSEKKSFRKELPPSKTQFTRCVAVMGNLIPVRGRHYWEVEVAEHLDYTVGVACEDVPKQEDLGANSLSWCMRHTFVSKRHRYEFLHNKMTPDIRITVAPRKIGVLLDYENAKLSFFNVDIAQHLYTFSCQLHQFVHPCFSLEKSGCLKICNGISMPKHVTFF

B1: minispryn (protein, UniProt Q8BZ52 1-716)
chain: T1 sequence

Legend:
[1] = target: T1, minispryn (mouse (endogenous in heart)); experiment: co-IP; RIPA extracts of cardiac muscle and of skeletal muscle; immunoprecipitated with anti-myospryn or anti-minispryn antisera, detected by immunoblot; unrelated IgG as control
[2] = target: myospryn (mouse (endogenous in heart)) (UniProt Q70KF4); experiment: as above

binding [1] | binding [2] | Molecule
binds | – | myospryn (from UniProt Q70KF4 1-3739)
– | binds | B1
